The list shows a part of the results. Repeats are few or missing, and single values can be far off.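 The apoptosis fraction was the count of cleaved-PARP antibody-stained nuclei relative to all DNA-stained nuclei, imaged in 1,536-well plates. Screening doses were set so most cells survived, and baseline and induced cleaved-PARP levels vary greatly across cell lines.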
System: LOXIMVI
Test: cleaved PARP positive nuclei fraction relative to DMSO control; melanoma cells; higher = more apoptosis
Details: library dose: low library concentration; 72 h

SMILES | cleaved PARP positive nuclei fraction [%]
CC(=O)O[C@@]12CO[C@@H]1C[C@H](O)[C@@]1(C)C(=O)[C@H](O)C3=C(C)[C@@H](OC(=O)[C@H](O)[C@@H](NC(=O)OC(C)(C)C)c4ccccc4)C[C@@](O)([C@@H](OC(=O)c4ccccc4)[C@H]21)C3(C)C [Docetaxel] + Cc1nc(Nc2ncc(C(=O)Nc3c(C)cccc3Cl)s2)cc(N2CCN(CCO)CC2)n1 [dasatanib] (first compound 0.0001 µM, partner dose 0.004 µM) | 90.6
CN(c1ncccc1CNc1nc(Nc2ccc3c(c2)CC(=O)N3)ncc1C(F)(F)F)S(C)(=O)=O + C=CCNC1=C2C[C@@H](C)C[C@H](OC)[C@H](O)[C@@H](C)/C=C(\C)[C@H](OC(N)=O)[C@@H](OC)/C=C\C=C(/C)C(=O)NC(=CC1=O)C2=O [Tanespimycin] (first compound 0.08 µM, partner dose 0.002 µM) | 154
C[C@]1(O)C[C@@H](c2nc(-c3ccc4ccc(-c5ccccc5)nc4c3)c3c(N)nccn32)C1 + CCN(CC)CCNC(=O)c1c(C)[nH]c(/C=C2\C(=O)Nc3ccc(F)cc32)c1C [sunitinib] (first compound 0.4 µM, partner dose 0.4 µM) | 94.9
C[C@]1(O)C[C@@H](c2nc(-c3ccc4ccc(-c5ccccc5)nc4c3)c3c(N)nccn32)C1 + C[C@]1(c2nc3c(C(N)=O)cccc3[nH]2)CCCN1 [Veliparib] (first compound 0.4 µM, partner dose 1.4 µM) | 128
CCN(CC)CCNC(=O)c1c(C)[nH]c(/C=C2\C(=O)Nc3ccc(F)cc32)c1C [sunitinib] + C[C@]1(c2nc3c(C(N)=O)cccc3[nH]2)CCCN1 [Veliparib] (first compound 0.4 µM, partner dose 1.4 µM) | 118
CC1(C)CCC(c2ccc(Cl)cc2)=C(CN2CCN(c3ccc(C(=O)NS(=O)(=O)c4ccc(N[C@H](CCN5CCOCC5)CSc5ccccc5)c(S(=O)(=O)C(F)(F)F)c4)cc3)CC2)C1 + CN1CCN(c2ccc3nc(-c4c(N)c5c(F)cccc5[nH]c4=O)[nH]c3c2)CC1 [Dovitinib] (first compound 0.4 µM, partner dose 0.1 µM) | 442
Cn1sc(=O)n(Cc2ccccc2)c1=O + Cn1c(Nc2ccc(C(F)(F)F)cc2)nc2cc(Oc3ccnc(-c4ncc(C(F)(F)F)[nH]4)c3)ccc21 [CHIR265] (first compound 0.4 µM, partner dose 0.08 µM) | 210
Cn1cnc2c(F)c(Nc3ccc(Br)cc3Cl)c(C(=O)NOCCO)cc21 [selumetinib] + C#Cc1cccc(Nc2ncnc3cc(OCCOC)c(OCCOC)cc23)c1 [erlotinib] (first compound 0.015 µM, partner dose 0.8 µM) | 56.9
NC(=O)c1ccc(N(C(N)=O)c2c(F)cccc2F)nc1-c1ccc(F)cc1F + C[C@@H](Oc1cc(-c2cnn(C3CCNCC3)c2)cnc1N)c1c(Cl)ccc(F)c1Cl [Crizotinib] (first compound 0.4 µM, partner dose 0.2 µM) | 54.8
CCN(CC)CCNC(=O)c1c(C)[nH]c(/C=C2\C(=O)Nc3ccc(F)cc32)c1C [sunitinib] + Nc1ccn([C@@H]2O[C@H](CO)[C@@H](O)C2(F)F)c(=O)n1 [gemcitabine] (first compound 0.4 µM, partner dose 0.0004 µM) | 27.6
CC1(C)CCC(c2ccc(Cl)cc2)=C(CN2CCN(c3ccc(C(=O)NS(=O)(=O)c4ccc(N[C@H](CCN5CCOCC5)CSc5ccccc5)c(S(=O)(=O)C(F)(F)F)c4)cc3)CC2)C1 + CS(=O)(=O)CCNCc1ccc(-c2ccc3ncnc(Nc4ccc(OCc5cccc(F)c5)c(Cl)c4)c3c2)o1 [lapatinib] (first compound 0.4 µM, partner dose 0.8 µM) | 209
CC1(C)CCC(c2ccc(Cl)cc2)=C(CN2CCN(c3ccc(C(=O)NS(=O)(=O)c4ccc(N[C@H](CCN5CCOCC5)CSc5ccccc5)c(S(=O)(=O)C(F)(F)F)c4)cc3)CC2)C1 + CCCS(=O)(=O)Nc1ccc(F)c(C(=O)c2c[nH]c3ncc(Cl)cc23)c1F [PLX4720] (first compound 0.4 µM, partner dose 0.08 µM) | 1080
CN(c1ncccc1CNc1nc(Nc2ccc3c(c2)CC(=O)N3)ncc1C(F)(F)F)S(C)(=O)=O + NC1(c2ccc(-c3nc4ccn5c(=O)[nH]nc5c4cc3-c3ccccc3)cc2)CCC1 [MK2206] (first compound 0.08 µM, partner dose 0.4 µM) | 120
C[C@@H](N)c1ccc(C(=O)Nc2ccnc3[nH]ccc23)cc1 + Nc1ccn([C@@H]2O[C@H](CO)[C@@H](O)C2(F)F)c(=O)n1 [gemcitabine] (first compound 0.4 µM, partner dose 0.0004 µM) | 119
CS(=O)(=O)c1ccc(C(=O)Nc2ccc(Cl)c(-c3ccccn3)c2)c(Cl)c1 [vismodegib] + CCCCCCCCc1ccc(CCC(N)(CO)CO)cc1 [fingolimod] (first compound 1 µM, partner dose 2 µM) | 250
C[C@@H](N)c1ccc(C(=O)Nc2ccnc3[nH]ccc23)cc1 + Nc1ncn([C@H]2C[C@H](O)[C@@H](CO)O2)c(=O)n1 [decitabine] (first compound 0.4 µM, partner dose 0.1 µM) | 40.3

Fetched one by one from the list above, 2 records:
SMILES | cleaved PARP positive nuclei fraction [%]
Cn1cnc2c(F)c(Nc3ccc(Br)cc3Cl)c(C(=O)NOCCO)cc21 [selumetinib] + C#Cc1cccc(Nc2ncnc3cc(OCCOC)c(OCCOC)cc23)c1 [erlotinib] (first compound 0.015 µM, partner dose 0.8 µM) | 56.9
NC(=O)c1ccc(N(C(N)=O)c2c(F)cccc2F)nc1-c1ccc(F)cc1F + C[C@@H](Oc1cc(-c2cnn(C3CCNCC3)c2)cnc1N)c1c(Cl)ccc(F)c1Cl [Crizotinib] (first compound 0.4 µM, partner dose 0.2 µM) | 54.8

Following part:

SMILES | cleaved PARP positive nuclei fraction [%]
C[C@]1(O)C[C@@H](c2nc(-c3ccc4ccc(-c5ccccc5)nc4c3)c3c(N)nccn32)C1 + CS(=O)(=O)c1ccc(C(=O)Nc2ccc(Cl)c(-c3ccccn3)c2)c(Cl)c1 [vismodegib] (first compound 0.4 µM, partner dose 1 µM) | 70.4
C[C@@H](N)c1ccc(C(=O)Nc2ccnc3[nH]ccc23)cc1 + CCCS(=O)(=O)Nc1ccc(F)c(C(=O)c2c[nH]c3ncc(Cl)cc23)c1F [PLX4720] (first compound 0.4 µM, partner dose 0.08 µM) | 241
CN(c1ncccc1CNc1nc(Nc2ccc3c(c2)CC(=O)N3)ncc1C(F)(F)F)S(C)(=O)=O + O=C(O)c1ccc2c(c1)nc(Nc1cccc(Cl)c1)c1ccncc12 [CX4945] (first compound 0.08 µM, partner dose 0.4 µM) | 56.8
NC(=O)c1ccc(N(C(N)=O)c2c(F)cccc2F)nc1-c1ccc(F)cc1F + C=CCNC1=C2C[C@@H](C)C[C@H](OC)[C@H](O)[C@@H](C)/C=C(\C)[C@H](OC(N)=O)[C@@H](OC)/C=C\C=C(/C)C(=O)NC(=CC1=O)C2=O [Tanespimycin] (first compound 0.4 µM, partner dose 0.002 µM) | 31.5
Cn1cnc2c(F)c(Nc3ccc(Br)cc3Cl)c(C(=O)NOCCO)cc21 [selumetinib] + Nc1ccn([C@@H]2O[C@H](CO)[C@@H](O)C2(F)F)c(=O)n1 [gemcitabine] (first compound 0.015 µM, partner dose 0.0004 µM) | 40.1
C[C@@H](N)c1ccc(C(=O)Nc2ccnc3[nH]ccc23)cc1 + Cn1c(=O)n(-c2ccc(C(C)(C)C#N)cc2)c2c3cc(-c4cnc5ccccc5c4)ccc3ncc21 [NVP-BEZ235] (first compound 0.4 µM, partner dose 0.004 µM) | 145
Cn1cnc2c(F)c(Nc3ccc(Br)cc3Cl)c(C(=O)NOCCO)cc21 [selumetinib] + Cn1c(Nc2ccc(C(F)(F)F)cc2)nc2cc(Oc3ccnc(-c4ncc(C(F)(F)F)[nH]4)c3)ccc21 [CHIR265] (first compound 0.015 µM, partner dose 0.08 µM) | 114
NC1(c2ccc(-c3nc4ccn5c(=O)[nH]nc5c4cc3-c3ccccc3)cc2)CCC1 + Clc1ccc(Nc2nnc(Cc3ccncc3)c3ccccc23)cc1 [vatalanib] (first compound 0.4 µM, partner dose 2 µM) | 109
CCCCCCCCc1ccc(CCC(N)(CO)CO)cc1 [fingolimod] + OCc1c[nH]c2ccccc12 [Indole-3-carbinol] (first compound 2 µM, partner dose 0.8 µM) | 131
Cn1sc(=O)n(Cc2ccccc2)c1=O + Clc1ccc(Nc2nnc(Cc3ccncc3)c3ccccc23)cc1 [vatalanib] (first compound 0.4 µM, partner dose 2 µM) | 92.7
NC(=O)c1ccc(N(C(N)=O)c2c(F)cccc2F)nc1-c1ccc(F)cc1F + CC(=O)c1c(C)c2cnc(Nc3ccc(N4CCNCC4)cn3)nc2n(C2CCCC2)c1=O [palbociclib] (first compound 0.4 µM, partner dose 0.04 µM) | 327
CC1(C)CCC(c2ccc(Cl)cc2)=C(CN2CCN(c3ccc(C(=O)NS(=O)(=O)c4ccc(N[C@H](CCN5CCOCC5)CSc5ccccc5)c(S(=O)(=O)C(F)(F)F)c4)cc3)CC2)C1 + CNC(=O)c1cc(Oc2ccc(NC(=O)Nc3ccc(Cl)c(C(F)(F)F)c3)cc2)ccn1 [sorafenib] (first compound 0.4 µM, partner dose 0.4 µM) | 108
NC(=O)c1ccc(N(C(N)=O)c2c(F)cccc2F)nc1-c1ccc(F)cc1F + COc1ccc(C2=N[C@@H](c3ccc(Cl)cc3)[C@@H](c3ccc(Cl)cc3)N2C(=O)N2CCNC(=O)C2)c(OC(C)C)c1 [Nutlin-3] (first compound 0.4 µM, partner dose 0.1 µM) | 27.3
C[C@]1(O)C[C@@H](c2nc(-c3ccc4ccc(-c5ccccc5)nc4c3)c3c(N)nccn32)C1 + Cn1c(=O)n(-c2ccc(C(C)(C)C#N)cc2)c2c3cc(-c4cnc5ccccc5c4)ccc3ncc21 [NVP-BEZ235] (first compound 0.4 µM, partner dose 0.004 µM) | 67.6
CC1(C)CCC(c2ccc(Cl)cc2)=C(CN2CCN(c3ccc(C(=O)NS(=O)(=O)c4ccc(N[C@H](CCN5CCOCC5)CSc5ccccc5)c(S(=O)(=O)C(F)(F)F)c4)cc3)CC2)C1 + Nc1ncn([C@H]2C[C@H](O)[C@@H](CO)O2)c(=O)n1 [decitabine] (first compound 0.4 µM, partner dose 0.1 µM) | 360
